Results are given in words; binding and its absence hold for the method and conditions named. Binding seen in cells or lysates may run through a third protein.

By UniProt entry, the sequences of proteins in these tests, tags left out.
UniProt Q6P179: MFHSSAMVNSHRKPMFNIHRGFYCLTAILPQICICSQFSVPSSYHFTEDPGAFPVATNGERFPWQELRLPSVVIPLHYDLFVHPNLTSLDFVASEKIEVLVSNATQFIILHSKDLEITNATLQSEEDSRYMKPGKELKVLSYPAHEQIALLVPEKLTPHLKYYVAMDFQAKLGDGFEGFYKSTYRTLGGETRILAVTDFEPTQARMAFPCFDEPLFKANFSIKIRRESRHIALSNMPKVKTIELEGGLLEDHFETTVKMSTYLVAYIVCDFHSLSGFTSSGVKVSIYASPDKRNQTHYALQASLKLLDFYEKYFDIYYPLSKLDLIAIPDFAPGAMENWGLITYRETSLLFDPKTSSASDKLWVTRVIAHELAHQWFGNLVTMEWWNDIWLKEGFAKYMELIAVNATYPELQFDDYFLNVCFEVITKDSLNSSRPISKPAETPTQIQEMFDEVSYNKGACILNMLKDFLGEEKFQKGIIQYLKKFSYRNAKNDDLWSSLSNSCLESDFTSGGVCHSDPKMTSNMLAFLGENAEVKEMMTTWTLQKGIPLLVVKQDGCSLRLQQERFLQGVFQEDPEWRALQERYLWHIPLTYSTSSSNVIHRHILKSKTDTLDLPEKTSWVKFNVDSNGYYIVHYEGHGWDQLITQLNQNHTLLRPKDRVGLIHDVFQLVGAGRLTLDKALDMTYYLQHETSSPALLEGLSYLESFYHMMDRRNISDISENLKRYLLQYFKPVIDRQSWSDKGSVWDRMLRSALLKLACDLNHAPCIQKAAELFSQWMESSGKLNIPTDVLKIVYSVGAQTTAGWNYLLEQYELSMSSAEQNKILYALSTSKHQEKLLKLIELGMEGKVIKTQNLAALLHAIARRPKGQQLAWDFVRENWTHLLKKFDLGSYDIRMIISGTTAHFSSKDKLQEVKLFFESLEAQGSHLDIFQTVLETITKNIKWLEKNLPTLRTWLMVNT
UniProt Q9UIQ6: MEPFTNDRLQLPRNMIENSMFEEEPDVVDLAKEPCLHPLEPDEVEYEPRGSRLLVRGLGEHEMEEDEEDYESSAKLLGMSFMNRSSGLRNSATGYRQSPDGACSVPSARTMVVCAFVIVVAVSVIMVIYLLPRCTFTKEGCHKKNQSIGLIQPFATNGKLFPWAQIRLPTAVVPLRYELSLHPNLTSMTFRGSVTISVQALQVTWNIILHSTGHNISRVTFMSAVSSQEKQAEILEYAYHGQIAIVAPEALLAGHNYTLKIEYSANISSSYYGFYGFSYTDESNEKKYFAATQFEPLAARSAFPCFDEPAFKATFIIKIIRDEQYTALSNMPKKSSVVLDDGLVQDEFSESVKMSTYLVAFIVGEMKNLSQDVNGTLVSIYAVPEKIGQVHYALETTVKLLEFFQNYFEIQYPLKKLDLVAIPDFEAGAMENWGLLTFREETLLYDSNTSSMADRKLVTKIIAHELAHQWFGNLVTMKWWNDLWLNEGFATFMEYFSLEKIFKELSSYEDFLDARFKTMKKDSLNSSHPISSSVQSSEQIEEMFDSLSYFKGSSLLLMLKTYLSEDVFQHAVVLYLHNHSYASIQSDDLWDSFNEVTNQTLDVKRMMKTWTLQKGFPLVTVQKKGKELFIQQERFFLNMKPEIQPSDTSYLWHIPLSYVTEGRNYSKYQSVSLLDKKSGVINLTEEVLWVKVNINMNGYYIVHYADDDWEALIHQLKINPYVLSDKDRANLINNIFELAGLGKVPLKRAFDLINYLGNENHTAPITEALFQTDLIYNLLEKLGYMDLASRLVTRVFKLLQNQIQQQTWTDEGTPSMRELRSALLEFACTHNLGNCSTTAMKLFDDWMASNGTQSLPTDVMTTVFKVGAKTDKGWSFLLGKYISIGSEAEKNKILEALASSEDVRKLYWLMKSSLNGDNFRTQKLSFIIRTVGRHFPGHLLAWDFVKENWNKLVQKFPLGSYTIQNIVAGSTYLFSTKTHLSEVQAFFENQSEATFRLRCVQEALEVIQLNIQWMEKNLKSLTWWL
UniProt Q9NZ08: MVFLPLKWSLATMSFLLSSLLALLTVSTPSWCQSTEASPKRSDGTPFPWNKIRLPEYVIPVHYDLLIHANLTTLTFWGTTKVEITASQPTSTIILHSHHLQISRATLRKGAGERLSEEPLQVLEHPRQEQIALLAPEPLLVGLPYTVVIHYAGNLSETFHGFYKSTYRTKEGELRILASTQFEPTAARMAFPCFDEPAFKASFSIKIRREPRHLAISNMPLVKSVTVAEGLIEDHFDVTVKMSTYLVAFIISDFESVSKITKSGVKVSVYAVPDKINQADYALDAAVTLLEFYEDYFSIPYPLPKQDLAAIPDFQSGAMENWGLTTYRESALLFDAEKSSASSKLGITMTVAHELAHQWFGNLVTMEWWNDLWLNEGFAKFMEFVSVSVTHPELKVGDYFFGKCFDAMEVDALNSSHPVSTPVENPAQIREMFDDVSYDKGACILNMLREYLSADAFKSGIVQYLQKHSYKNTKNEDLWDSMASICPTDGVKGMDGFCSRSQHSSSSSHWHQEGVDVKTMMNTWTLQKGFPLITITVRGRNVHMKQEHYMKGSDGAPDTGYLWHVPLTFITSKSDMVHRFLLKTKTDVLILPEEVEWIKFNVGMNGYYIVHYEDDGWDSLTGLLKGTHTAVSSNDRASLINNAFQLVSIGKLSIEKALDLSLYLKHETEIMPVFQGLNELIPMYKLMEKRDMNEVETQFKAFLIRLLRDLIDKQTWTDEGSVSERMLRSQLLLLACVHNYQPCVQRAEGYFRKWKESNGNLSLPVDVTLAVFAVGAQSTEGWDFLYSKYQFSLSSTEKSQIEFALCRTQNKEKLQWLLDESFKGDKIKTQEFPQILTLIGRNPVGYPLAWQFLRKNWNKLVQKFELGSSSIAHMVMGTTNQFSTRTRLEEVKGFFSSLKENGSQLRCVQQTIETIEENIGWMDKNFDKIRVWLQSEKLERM

Assay [1] addresses ERAP2 full length (canonical ERAP2 protein, 115 kDa) (human (endogenous in U937)) (UniProt Q6P179). In words: co-IP; MoAbs (anti-ERAP2, anti-IRAP, anti-ERAP1) cross-linked to resin with DSS (Pierce Crosslink Immunoprecipitation kit); 1 mg of pre-cleared total lysate of U937 cells, untreated or treated with 80 nM PMA for 96 h, incubated overnight at 4 °C; eluted with the kit's elution buffer; eluates blotted with the three MoAbs.

For assay [2], the target named is IRAP (product of the gene LNPEP) (human (endogenous in U937)) (UniProt Q9UIQ6). The assay is described as above.

Take “ERAP1 (from UniProt Q9NZ08 1-941) (enzyme)”: the binding entry in assay [1] and in assay [2] was “no binding” throughout.

The values above are taken from paper PMC9101739.
